Source: PubChem BioAssay AID2685 (National Center for Advancing Translational Sciences (NCATS), 2010)
Some of the results follow. Further columns of the screen follow, without active or inactive calls. The list favours compounds with an active or inconclusive main result. The note in brackets gives the kind of curve behind each potency; many fits are weak.

Assay: qHTS Assay for Lipid Storage Modulators in Drosophila S3 Cells;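 on cell number change: cells counted by Cell Tracker Red CMTPX staining in the red channel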
Details: BODIPY lipid droplet fluorescence, 18-24 h; for cell number change: measured here: cell count max response, cells fed with added oleic acid
Summary of the method: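 Drosophila S3 cells loaded with oleic acid (400 uM, as added) and compounds at several concentrations; lipid droplets imaged by 488-nm laser-scanning cytometry, 500–530 nm intensity and object ratio to cell channel. Percent activity normalized to 20 uM Triacsin C.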

[1] = measured here: lipid fluorescence (Fed channel) AC50, cells fed with added oleic acid
[2] = measured here: cell number channel AC50, cells fed with added oleic acid

Row | Compound | AC50 [1] | cell number change [%] | AC50 [2]
1 | O=C(Cn1nc(-c2ccco2)ccc1=O)Nc1ccc(Cl)c(Cl)c1 | 29.1 µM [falling, single point] |  | 
2 | O=C(Nc1cc(=O)c2ccccc2o1)N1CCOCC1 | 0.164 µM [rising, full curve, poor fit] | 8.75 | 
3 | N#Cc1c(Sc2ncc(C(F)(F)F)cc2Cl)nsc1C/C=N\OCc1ccccc1Br | 9.2 µM [falling, partial curve] | -25.6 | 
4 | Cc1ccc(S(=O)(=O)Nc2ccccc2C(=O)N2CCCCC2)cc1 | 29.1 µM [rising, single point] | -7.37 | 
5 | Cc1c(C(=O)OCC(=O)Nc2ccc3c(c2)OCO3)cccc1[N+](=O)[O-] | 7.31 µM [rising, partial curve] | 43.6 | 2.06 µM [rising, partial curve]
6 | CC1CCCCC1NC(=O)CN1CCC(NC(=O)c2ccc([N+](=O)[O-])cc2)CC1 (stereo unspecified) | 0.651 µM [rising, partial curve, poor fit] | 2.99 | 
7 | C=CCN1C(=O)/C(=C/c2ccc(O)c(OC)c2)S/C1=N/c1nccs1 | 1.84 µM [rising, partial curve] | -21 | 
8 | CN(CC(=O)Nc1ccccc1Br)C(=O)CCc1nc2ccccc2c(=O)[nH]1 | 1.03 µM [rising, partial curve] |  | 
9 | CC(Sc1nnc(COc2ccc3ccccc3c2)n1C)C(=O)O (stereo unspecified) |  | 13.2 | 
10 | C[C@@H]1CC=C[C@H]2[C@H]1C(=O)N(Cc1ccccc1)[C@H]2c1ccc(Br)cc1F | 14.6 µM [falling, partial curve] | -25.1 | 
11 | Cc1ccc(-n2c(C)cc(/C=N/NC(N)=S)c2C)cc1 |  | 9.1 | 4.11 µM [falling, single point]
12 | C#CCCc1ccccc1/C=[N+](/C)[O-] | 2.31 µM [falling, partial curve] | -12.2 | 
13 | CN(C)CCCNC(=O)c1cc(C(=O)Cc2ccccc2)c[nH]1 | 1.03 µM [falling, partial curve, poor fit] | -46.3 | 29.1 µM [falling, single point]
14 | O=C(CCCCCn1c(=S)[nH]c2ccc(N3CCOCC3)cc2c1=O)NCc1cccc(Cl)c1 | 29.1 µM [falling, single point] | -37.1 | 29.1 µM [falling, single point]
15 | Cc1n[nH]c(=O)c2c(NC(=O)COC(=O)/C=C/c3cccc(C(F)(F)F)c3)oc(C)c12 | 4.61 µM [rising, partial curve] | 27.4 | 
16 | COc1ccc(S(=O)(=O)N(C)CC(=O)Nc2ccccc2C(F)(F)F)cc1OC |  | 13.1 | 

An excerpt of these results, tab-delimited:
Row	Compound	AC50 [1]	cell number change [%]	AC50 [2]
13	CN(C)CCCNC(=O)c1cc(C(=O)Cc2ccccc2)c[nH]1	1.03 µM [falling, partial curve, poor fit]	-46.3	29.1 µM [falling, single point]
14	O=C(CCCCCn1c(=S)[nH]c2ccc(N3CCOCC3)cc2c1=O)NCc1cccc(Cl)c1	29.1 µM [falling, single point]	-37.1	29.1 µM [falling, single point]
